The target in experiment [1] is Ras-GTPase-activating protein-binding protein 1 (bovine (endogenous in BAECs)) (UniProt Q32LC7). The experiment can be described thus: co-IP; endogenous proteins immunoprecipitated (1 µg antibody, 1 mg protein, overnight, protein A sepharose) from BAEC lysates, lysis buffer with 75 mM NaCl; immunoblot; non-immune IgG as control; cells treated or not with VEGF (40 ng/ml, 10 min), arsenite (500 µM, 30 min), MG132 or siZO-1. (In general: A western blot detects proteins with antibodies after separation by electrophoresis.)

Sequences of proteins named here, by UniProt entry; tags and fusion partners are left off. Residues count along the entry.
UniProt Q32LC7: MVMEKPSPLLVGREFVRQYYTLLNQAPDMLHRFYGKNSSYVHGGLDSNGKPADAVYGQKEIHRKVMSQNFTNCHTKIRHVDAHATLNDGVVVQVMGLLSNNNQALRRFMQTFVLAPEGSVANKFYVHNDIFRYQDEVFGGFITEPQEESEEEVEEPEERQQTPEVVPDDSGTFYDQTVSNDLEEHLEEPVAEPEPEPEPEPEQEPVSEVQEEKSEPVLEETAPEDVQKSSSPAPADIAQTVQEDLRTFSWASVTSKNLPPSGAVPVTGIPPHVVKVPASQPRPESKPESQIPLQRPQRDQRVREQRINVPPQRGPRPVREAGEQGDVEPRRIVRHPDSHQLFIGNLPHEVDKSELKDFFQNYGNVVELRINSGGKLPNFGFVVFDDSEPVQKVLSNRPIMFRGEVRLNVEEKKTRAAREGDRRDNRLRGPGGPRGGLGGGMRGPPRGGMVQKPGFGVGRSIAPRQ
UniProt Q07157, residues 511-1100: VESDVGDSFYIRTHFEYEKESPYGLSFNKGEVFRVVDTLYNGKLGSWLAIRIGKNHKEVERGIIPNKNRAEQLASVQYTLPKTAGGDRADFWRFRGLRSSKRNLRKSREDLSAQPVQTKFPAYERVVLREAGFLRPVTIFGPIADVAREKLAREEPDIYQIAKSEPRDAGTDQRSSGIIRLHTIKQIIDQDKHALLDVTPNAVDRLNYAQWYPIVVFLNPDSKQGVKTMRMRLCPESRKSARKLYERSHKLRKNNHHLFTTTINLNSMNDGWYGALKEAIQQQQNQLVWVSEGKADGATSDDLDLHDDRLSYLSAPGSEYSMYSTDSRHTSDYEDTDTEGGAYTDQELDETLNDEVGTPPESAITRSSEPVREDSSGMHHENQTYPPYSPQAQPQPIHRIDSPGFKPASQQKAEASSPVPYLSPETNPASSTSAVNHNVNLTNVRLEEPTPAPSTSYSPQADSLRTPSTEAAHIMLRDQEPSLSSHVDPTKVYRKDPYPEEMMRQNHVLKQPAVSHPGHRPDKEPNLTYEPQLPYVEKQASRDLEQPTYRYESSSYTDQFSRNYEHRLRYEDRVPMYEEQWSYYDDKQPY
UniProt P67808: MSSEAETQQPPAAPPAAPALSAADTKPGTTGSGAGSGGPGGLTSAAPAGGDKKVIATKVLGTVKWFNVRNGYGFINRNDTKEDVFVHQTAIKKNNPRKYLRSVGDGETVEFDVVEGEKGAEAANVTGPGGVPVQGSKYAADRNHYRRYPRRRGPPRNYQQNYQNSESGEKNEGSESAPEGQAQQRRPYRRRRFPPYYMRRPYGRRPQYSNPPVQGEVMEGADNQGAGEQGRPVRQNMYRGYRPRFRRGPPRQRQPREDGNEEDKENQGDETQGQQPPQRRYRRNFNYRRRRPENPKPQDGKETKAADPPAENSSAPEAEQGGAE
UniProt P67809: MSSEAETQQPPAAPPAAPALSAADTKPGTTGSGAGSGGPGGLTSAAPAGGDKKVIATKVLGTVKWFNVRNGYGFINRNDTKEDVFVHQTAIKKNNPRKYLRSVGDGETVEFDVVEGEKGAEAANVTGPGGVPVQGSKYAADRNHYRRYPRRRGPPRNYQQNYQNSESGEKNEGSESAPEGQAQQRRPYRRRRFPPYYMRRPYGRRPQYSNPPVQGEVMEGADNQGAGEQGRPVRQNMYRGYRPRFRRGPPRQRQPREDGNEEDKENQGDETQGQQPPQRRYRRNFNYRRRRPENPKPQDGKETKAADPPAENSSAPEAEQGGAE

The next experiment addresses GST-ZO-1 (aa. 511-1100) (UniProt Q07157). The experiment can be described thus: pull-down; ~50 pM GST fusion protein prebound to glutathione agarose beads, incubated 4 h at 4 °C with 500 µg lysate of BAECs overexpressing myc-YB-1 (modified RIPA buffer, 110 mM NaCl); washed in 50 mM Tris-Cl pH 7.4, 125 mM NaCl; anti-myc immunoblot; only the target purified.

Consider two substances from publication PMC11116412.

No constants are given. Whether binding was seen depends on the method and setting. Binding seen in cells or lysates may run through a third protein. Some binding calls cover weakened binding; strength is not graded here.

“Y-box binding protein 1 (from UniProt P67808 1-324)”: the binding entry in experiment [1] is reported as “binds”.
For “myc-tagged YB-1 (from UniProt P67809 1-324)”, in the experiment with GST-ZO-1 (aa. 511-1100), the binding entry was “binds”.
